Sequences of proteins named here, by UniProt entry; tags and fusion partners are left off.
UniProt Q04205: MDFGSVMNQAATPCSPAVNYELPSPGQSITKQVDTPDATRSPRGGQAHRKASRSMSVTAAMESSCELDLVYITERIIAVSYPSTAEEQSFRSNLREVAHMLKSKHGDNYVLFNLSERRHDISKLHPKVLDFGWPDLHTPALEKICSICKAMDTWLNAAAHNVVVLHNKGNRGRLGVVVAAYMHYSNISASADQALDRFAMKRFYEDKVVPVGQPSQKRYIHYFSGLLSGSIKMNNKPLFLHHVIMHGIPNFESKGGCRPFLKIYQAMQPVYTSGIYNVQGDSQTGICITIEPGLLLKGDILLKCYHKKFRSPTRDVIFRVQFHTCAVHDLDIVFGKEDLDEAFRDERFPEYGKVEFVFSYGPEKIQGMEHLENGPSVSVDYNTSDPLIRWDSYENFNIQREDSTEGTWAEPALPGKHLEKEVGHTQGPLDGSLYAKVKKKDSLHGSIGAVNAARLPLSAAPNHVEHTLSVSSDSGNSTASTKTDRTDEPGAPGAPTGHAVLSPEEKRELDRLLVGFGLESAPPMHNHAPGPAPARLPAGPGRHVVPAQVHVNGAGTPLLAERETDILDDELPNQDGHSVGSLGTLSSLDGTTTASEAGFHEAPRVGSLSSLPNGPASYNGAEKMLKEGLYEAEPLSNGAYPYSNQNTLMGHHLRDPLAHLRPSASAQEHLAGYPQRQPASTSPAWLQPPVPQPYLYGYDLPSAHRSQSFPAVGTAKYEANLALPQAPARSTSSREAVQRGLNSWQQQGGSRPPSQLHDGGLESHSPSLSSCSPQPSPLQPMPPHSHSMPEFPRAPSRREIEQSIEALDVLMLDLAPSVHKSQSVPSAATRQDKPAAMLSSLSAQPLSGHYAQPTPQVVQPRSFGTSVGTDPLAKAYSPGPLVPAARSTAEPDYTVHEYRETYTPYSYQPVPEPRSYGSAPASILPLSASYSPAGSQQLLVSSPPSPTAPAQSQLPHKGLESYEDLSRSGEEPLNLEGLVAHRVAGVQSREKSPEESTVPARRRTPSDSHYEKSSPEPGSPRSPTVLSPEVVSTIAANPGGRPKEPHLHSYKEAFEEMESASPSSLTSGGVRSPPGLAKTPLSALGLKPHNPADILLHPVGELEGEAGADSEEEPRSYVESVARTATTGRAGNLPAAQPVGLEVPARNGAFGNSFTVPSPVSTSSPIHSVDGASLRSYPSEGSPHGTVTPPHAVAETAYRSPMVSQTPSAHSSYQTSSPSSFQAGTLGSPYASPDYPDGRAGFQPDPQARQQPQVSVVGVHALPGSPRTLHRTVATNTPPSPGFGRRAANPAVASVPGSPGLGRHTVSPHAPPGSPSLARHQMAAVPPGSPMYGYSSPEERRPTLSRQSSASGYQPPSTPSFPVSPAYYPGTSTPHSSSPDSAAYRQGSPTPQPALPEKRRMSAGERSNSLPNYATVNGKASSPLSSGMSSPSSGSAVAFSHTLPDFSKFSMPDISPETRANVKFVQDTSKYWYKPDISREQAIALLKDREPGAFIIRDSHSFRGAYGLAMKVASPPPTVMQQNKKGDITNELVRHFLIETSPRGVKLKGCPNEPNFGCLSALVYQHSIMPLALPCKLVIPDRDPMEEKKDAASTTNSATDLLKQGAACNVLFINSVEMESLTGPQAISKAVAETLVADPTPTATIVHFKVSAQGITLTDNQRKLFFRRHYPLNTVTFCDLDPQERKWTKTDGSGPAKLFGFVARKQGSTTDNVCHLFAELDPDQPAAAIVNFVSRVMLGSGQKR

In article PMC4890666:

What was measured:
[1] = molecular target: FLAG-tagged Cas15YF (phosphorylation-defective mutant of Cas) (UniProt Q61140); experiment: co-IP; anti-FLAG (M2) Affinity Gel on lysates of HEK293T cells co-transfected 24 h with FLAG-Cas variants and Cerulean-tensin 1 variants; anti-GFP blot detects Cerulean
[2] = molecular target: T1, FLAG-tagged wild-type Cas (p130Cas, Crk-associated substrate) (UniProt Q61140); experiment: as above
T1 sequence: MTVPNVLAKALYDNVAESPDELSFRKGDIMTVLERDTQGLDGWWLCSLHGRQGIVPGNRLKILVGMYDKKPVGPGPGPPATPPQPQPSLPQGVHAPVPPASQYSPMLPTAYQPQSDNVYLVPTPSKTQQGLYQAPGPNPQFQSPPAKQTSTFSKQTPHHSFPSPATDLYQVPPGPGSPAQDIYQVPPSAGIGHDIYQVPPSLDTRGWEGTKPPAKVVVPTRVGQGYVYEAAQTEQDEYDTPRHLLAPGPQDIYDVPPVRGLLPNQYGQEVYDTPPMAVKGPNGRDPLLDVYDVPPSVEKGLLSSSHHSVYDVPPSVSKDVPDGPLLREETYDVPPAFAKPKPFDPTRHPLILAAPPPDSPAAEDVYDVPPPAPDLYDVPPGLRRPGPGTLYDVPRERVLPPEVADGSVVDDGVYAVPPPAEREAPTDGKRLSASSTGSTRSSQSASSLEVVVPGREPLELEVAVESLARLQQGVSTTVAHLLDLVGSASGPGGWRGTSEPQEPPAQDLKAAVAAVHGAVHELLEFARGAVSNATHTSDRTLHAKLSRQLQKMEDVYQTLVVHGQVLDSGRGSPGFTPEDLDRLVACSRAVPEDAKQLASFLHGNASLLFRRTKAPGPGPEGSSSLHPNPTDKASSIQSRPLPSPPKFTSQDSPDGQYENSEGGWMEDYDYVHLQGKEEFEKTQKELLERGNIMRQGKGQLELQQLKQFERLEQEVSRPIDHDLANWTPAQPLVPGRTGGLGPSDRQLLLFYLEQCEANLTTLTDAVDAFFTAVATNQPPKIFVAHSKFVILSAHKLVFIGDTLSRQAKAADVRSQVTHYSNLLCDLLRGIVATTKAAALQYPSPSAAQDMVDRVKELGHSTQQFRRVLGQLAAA

With “Cerulean-tagged tensin 1 (full-length) (from UniProt Q04205 1-1744)” the binding [1] was “binds weakly”.

For “Cerulean-tensin 1-ΔSH2PTB (chicken) (domain or fragment)”, the binding [2] was “binds weakly”.

These are yes or no findings as the source states them, for the method shown. In cells and extracts the contact can be indirect. Binding can be weak; no strength is given. For some assays here: Sequences can lack the tags named with a protein.
